Data from article PMC11891140.
No constants are given. Whether binding was seen depends on the method and setting. Binding seen in cells or lysates may run through a third protein. For some assays here: Binding calls can cover weak binding; strength is not graded here. For some assays here: Where a sequence is shown, tags or fusion partners need not be part of it.

Assays:
[1] = biological target: T1, RAB-10 used in GST pull-downs, loaded with GTPγS or GDP (C. elegans) (UniProt Q94148); assay: pull-down; GST pull-down with RAB-10 loaded with GTPγS; prey in vitro translated HA-tagged UNC-16 domains; Western blot (Fig. 2C, 7J); only the target purified
T1 sequence: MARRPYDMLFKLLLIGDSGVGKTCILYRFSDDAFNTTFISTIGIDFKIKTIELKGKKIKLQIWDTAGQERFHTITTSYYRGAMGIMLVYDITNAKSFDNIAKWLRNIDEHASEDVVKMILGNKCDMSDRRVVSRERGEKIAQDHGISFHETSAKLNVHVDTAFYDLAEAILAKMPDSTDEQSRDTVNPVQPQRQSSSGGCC

[2] = biological target: T2, EGL-8 used as bait in GST pull-downs of UNC-16 domains (C. elegans) (UniProt G5EBH0); assay: pull-down; GST pull-down between EGL-8 and UNC-16; prey in vitro translated HA-tagged UNC-16 or EGL-8 domains; Western blot (Fig. 5D, 5E, 7J); only the target purified
T2 sequence: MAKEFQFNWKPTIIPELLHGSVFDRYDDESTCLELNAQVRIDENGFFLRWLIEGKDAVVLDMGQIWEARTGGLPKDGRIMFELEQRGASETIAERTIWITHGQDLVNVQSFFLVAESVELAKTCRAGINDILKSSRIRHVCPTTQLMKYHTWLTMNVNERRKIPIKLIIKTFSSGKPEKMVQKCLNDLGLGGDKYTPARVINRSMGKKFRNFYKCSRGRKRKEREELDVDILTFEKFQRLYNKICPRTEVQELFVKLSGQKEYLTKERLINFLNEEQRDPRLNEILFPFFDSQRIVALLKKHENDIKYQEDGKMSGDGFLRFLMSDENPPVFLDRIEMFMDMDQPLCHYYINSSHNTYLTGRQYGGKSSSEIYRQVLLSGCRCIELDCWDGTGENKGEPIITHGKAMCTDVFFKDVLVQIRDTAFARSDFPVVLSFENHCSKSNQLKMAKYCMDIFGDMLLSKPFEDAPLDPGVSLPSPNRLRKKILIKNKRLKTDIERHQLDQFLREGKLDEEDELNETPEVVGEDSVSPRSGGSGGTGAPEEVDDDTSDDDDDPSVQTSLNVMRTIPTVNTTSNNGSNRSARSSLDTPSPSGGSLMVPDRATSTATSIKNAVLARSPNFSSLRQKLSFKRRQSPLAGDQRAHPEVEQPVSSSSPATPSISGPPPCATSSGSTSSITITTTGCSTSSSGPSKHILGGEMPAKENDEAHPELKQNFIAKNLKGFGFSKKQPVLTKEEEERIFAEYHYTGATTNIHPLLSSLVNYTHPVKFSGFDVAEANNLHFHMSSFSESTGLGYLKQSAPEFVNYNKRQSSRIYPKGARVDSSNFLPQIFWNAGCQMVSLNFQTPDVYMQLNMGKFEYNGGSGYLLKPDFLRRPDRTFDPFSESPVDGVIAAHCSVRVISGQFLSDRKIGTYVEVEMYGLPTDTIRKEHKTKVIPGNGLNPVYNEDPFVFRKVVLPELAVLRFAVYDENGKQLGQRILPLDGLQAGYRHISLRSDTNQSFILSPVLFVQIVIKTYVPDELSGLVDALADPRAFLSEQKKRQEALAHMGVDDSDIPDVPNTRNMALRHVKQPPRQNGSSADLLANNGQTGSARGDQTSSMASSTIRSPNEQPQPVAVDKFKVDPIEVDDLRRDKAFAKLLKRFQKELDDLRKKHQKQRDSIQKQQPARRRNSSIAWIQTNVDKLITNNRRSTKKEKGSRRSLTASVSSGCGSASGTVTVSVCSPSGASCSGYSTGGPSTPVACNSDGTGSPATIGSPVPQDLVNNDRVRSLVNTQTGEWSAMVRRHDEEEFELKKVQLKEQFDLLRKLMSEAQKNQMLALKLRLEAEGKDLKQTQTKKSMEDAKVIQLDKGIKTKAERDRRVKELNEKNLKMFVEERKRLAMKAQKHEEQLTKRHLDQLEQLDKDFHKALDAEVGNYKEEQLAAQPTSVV

[3] = biological target: T3, RAB-10(Q68L) (epitope-tagged, expressed in C. elegans animals) (C. elegans) (UniProt Q94148); assay: co-IP; lysates of C. elegans animals expressing epitope-tagged proteins (Fig. 2A, 5C); immunoblot
T3 sequence: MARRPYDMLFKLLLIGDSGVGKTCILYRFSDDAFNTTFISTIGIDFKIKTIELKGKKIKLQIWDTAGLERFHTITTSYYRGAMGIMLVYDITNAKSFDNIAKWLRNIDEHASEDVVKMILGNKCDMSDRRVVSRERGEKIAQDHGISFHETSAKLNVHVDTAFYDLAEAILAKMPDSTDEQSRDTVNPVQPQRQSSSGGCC

[4] = biological target: T4, RAB-10(T23N) (epitope-tagged, expressed in C. elegans animals) (C. elegans) (UniProt Q94148); assay: as above
T4 sequence: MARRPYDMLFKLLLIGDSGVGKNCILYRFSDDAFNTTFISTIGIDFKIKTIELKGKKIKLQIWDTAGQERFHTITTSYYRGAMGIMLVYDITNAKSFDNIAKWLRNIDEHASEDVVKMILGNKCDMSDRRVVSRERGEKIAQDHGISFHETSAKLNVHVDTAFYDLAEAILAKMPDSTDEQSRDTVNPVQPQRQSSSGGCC

[5] = biological target: UNC-16 (epitope-tagged, expressed in C. elegans animals) (C. elegans); assay: as above

With “HA-tagged UNC-16 fragment containing the LZII domain (in vitro translated) (C. elegans) (domain or fragment)” the binding [1] was “binds” and the binding [2] was “binds”.

For “UNC-16 (epitope-tagged, expressed in C. elegans animals)”, the binding [3] was “binds” and the binding [4] was “no binding”.

B1: EGL-8::mCherry (expressed in C. elegans animals) (enzyme, UniProt G5EBH0 1-1431)
chain: MAKEFQFNWKPTIIPELLHGSVFDRYDDESTCLELNAQVRIDENGFFLRWLIEGKDAVVLDMGQIWEARTGGLPKDGRIMFELEQRGASETIAERTIWITHGQDLVNVQSFFLVAESVELAKTCRAGINDILKSSRIRHVCPTTQLMKYHTWLTMNVNERRKIPIKLIIKTFSSGKPEKMVQKCLNDLGLGGDKYTPARVINRSMGKKFRNFYKCSRGRKRKEREELDVDILTFEKFQRLYNKICPRTEVQELFVKLSGQKEYLTKERLINFLNEEQRDPRLNEILFPFFDSQRIVALLKKHENDIKYQEDGKMSGDGFLRFLMSDENPPVFLDRIEMFMDMDQPLCHYYINSSHNTYLTGRQYGGKSSSEIYRQVLLSGCRCIELDCWDGTGENKGEPIITHGKAMCTDVFFKDVLVQIRDTAFARSDFPVVLSFENHCSKSNQLKMAKYCMDIFGDMLLSKPFEDAPLDPGVSLPSPNRLRKKILIKNKRLKTDIERHQLDQFLREGKLDEEDELNETPEVVGEDSVSPRSGGSGGTGAPEEVDDDTSDDDDDPSVQTSLNVMRTIPTVNTTSNNGSNRSARSSLDTPSPSGGSLMVPDRATSTATSIKNAVLARSPNFSSLRQKLSFKRRQSPLAGDQRAHPEVEQPVSSSSPATPSISGPPPCATSSGSTSSITITTTGCSTSSSGPSKHILGGEMPAKENDEAHPELKQNFIAKNLKGFGFSKKQPVLTKEEEERIFAEYHYTGATTNIHPLLSSLVNYTHPVKFSGFDVAEANNLHFHMSSFSESTGLGYLKQSAPEFVNYNKRQSSRIYPKGARVDSSNFLPQIFWNAGCQMVSLNFQTPDVYMQLNMGKFEYNGGSGYLLKPDFLRRPDRTFDPFSESPVDGVIAAHCSVRVISGQFLSDRKIGTYVEVEMYGLPTDTIRKEHKTKVIPGNGLNPVYNEDPFVFRKVVLPELAVLRFAVYDENGKQLGQRILPLDGLQAGYRHISLRSDTNQSFILSPVLFVQIVIKTYVPDELSGLVDALADPRAFLSEQKKRQEALAHMGVDDSDIPDVPNTRNMALRHVKQPPRQNGSSADLLANNGQTGSARGDQTSSMASSTIRSPNEQPQPVAVDKFKVDPIEVDDLRRDKAFAKLLKRFQKELDDLRKKHQKQRDSIQKQQPARRRNSSIAWIQTNVDKLITNNRRSTKKEKGSRRSLTASVSSGCGSASGTVTVSVCSPSGASCSGYSTGGPSTPVACNSDGTGSPATIGSPVPQDLVNNDRVRSLVNTQTGEWSAMVRRHDEEEFELKKVQLKEQFDLLRKLMSEAQKNQMLALKLRLEAEGKDLKQTQTKKSMEDAKVIQLDKGIKTKAERDRRVKELNEKNLKMFVEERKRLAMKAQKHEEQLTKRHLDQLEQLDKDFHKALDAEVGNYKEEQLAAQPTSVV
In the case of B1, the binding [5] is reported as “binds”.
